From doi:10.1101/2024.12.04.625416 come the findings set out here.

These are yes or no findings as the source states them, for the method shown. In cells and extracts the contact can be indirect. Here binding means that the protein was enriched with, or labelled near, the bait; the list need not be complete.

In the assay the target is PbSUN1 with C-terminal GFP tag (SUN1-GFP) (Plasmodium berghei). In words: affinity purification with mass spectrometry.

In the case of “DDRGK-domain containing UFM1 E3 ligase (from UniProt A0A509AQ22)”, the binding result is given as “binds”.
